This note sets out measurements from article PMC3573033, “Allosteric Regulation of Serine Protease HtrA2 through Novel Non-Canonical Substrate Binding Pocket” (PLoS ONE, 2013).

These are yes or no findings as the source states them, for the method shown.

For this experiment, the target named is HtrA2 N216A/S219A (SBP double mutant), mature (Δ133 HtrA2). In words: condition: 0.4 mM activator peptide injected into 20 to 50 µM protein; ITC; MicroCal ITC200; 200 µl of wild type or N216A/S219A HtrA2 (20 to 50 µM) in the cell, titrated with 1.5 µl injections of 0.4 mM activator peptide; 20 mM Na2HPO4/NaH2PO4, 100 mM NaCl, pH 7.8; 25°C; one site-binding model; both purified.

For the molecule SEHRRHFPNCFFV [13mer activating peptide SEHRRHFPNCFFV], the binding result is “no binding”.
